Measured values from article PMC10632368.

Amino acid sequences for entries named in this document (tags omitted).
UniProt Q91YX0: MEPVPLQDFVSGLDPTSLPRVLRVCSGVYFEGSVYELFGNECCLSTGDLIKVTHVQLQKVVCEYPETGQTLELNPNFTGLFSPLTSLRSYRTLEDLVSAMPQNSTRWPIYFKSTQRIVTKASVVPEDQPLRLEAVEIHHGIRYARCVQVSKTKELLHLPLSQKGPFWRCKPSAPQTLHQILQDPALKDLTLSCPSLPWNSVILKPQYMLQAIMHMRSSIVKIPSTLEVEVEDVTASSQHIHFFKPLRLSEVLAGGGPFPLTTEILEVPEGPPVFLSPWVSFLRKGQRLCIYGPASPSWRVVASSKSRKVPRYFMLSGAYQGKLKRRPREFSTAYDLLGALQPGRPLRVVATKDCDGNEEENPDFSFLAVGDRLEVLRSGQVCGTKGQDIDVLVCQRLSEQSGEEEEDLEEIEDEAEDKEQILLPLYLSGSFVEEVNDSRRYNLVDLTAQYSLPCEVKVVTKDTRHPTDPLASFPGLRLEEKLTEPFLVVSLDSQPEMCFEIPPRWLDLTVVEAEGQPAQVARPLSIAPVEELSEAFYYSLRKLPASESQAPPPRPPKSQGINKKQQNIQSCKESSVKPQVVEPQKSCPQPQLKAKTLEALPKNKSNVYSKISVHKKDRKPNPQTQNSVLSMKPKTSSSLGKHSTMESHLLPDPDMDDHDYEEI

Target: recombinant FLAG-tagged Themis2 protein (mouse) (UniProt Q91YX0)
Assay: affinity purification with mass spectrometry; 2 mg nuclear proteins of effector Themis2-/- NK cells incubated with 200 ug purified Themis2-FLAG for 3 h at 4 °C; cross-linked with 1 mM DTSSP; anti-FLAG M2 affinity gel, eluted with 3x FLAG peptides; unique silver-stained bands analysed by MALDI-TOF, MASCOT; only the target purified

B1: Zfp740 (protein, UniProt Q6NZQ6 1-180)
chain: MMLSQIASKQAENGERAGSPDVLRCSSQMDCKPRFDLSSKGHRKDSDKSRNRKEDDSLAEASHSKKTVKKVVVVEQNGSFQVKIPKNFICEHCFGAFRSSYHLKRHVLIHTGEKPFECDVCDMRFIQKYHLERHKRVHSGEKPYQCERCHQCFSRTDRLLRHKRMCQGCQSKTSEGQFSL
binding: binds

No constants are given. Whether binding was seen depends on the method and setting. Binding seen in cells or lysates may run through a third protein. Here binding means that the protein was enriched with, or labelled near, the bait; the list need not be complete.
